The values that follow come from article PMC8595217.

Chains of the proteins cited; added tags and fusions are not shown. Lines headed by an entry give the natural chain unless they say otherwise; changes in a name come on top.
UniProt P10636: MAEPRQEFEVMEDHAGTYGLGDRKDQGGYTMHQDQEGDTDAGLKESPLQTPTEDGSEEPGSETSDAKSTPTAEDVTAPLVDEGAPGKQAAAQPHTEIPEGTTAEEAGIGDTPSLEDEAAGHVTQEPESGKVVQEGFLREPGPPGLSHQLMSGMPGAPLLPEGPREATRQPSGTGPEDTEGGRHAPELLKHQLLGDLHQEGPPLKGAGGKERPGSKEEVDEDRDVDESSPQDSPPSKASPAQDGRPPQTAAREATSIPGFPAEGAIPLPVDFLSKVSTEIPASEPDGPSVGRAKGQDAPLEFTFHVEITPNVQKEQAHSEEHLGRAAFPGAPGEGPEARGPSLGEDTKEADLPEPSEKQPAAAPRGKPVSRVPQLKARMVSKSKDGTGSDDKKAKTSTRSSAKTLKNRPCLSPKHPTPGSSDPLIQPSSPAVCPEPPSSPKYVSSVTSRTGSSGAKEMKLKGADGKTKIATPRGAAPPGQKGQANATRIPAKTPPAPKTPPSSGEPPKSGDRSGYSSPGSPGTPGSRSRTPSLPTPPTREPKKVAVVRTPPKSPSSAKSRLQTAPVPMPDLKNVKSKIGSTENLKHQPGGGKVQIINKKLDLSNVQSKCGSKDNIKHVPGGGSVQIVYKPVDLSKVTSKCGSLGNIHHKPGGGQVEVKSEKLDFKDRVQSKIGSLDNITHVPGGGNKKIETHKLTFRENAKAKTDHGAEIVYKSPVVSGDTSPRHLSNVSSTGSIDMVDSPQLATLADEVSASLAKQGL
UniProt Q8IXI2: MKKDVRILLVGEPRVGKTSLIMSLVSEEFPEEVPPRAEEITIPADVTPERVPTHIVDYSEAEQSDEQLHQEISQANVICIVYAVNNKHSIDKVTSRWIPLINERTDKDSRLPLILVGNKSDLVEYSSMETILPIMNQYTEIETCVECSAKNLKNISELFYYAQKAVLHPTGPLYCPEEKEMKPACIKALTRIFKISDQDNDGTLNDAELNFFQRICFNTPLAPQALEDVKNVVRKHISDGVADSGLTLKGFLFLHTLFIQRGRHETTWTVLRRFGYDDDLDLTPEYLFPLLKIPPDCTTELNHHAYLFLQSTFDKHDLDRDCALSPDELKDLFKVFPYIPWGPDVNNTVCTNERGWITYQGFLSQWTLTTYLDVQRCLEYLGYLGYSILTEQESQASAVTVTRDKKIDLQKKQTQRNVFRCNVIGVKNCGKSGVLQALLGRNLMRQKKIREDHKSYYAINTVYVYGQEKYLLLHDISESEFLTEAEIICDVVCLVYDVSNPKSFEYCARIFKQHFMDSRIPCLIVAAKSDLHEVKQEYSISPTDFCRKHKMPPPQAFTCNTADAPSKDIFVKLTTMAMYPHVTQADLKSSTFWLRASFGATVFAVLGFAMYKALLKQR

The assay addresses EGFP-tau-P301L (from pRK5-EGFP-tau-P301L) (UniProt P10636). Briefly: co-IP; IP with anti-GFP from HEK cells transfected with EGFP-tau and Miro1 constructs; immunoblot. In general terms: In western blotting, separated proteins are transferred to a membrane and probed.

These are yes or no findings as the source states them, for the method shown. Binding seen in cells or lysates may run through a third protein.

As for “Miro1 (transfected Miro1 construct) (from UniProt Q8IXI2 1-618)”, the binding result was “no binding”.
